Data from the supplement of paper PMC6411743.
± gives the standard deviation of the averaged measurements. The entries are a selection whose mix differs from that of the whole data set. Small differences around the control level are noise.

Amino acid sequences for entries named in this document (tags omitted). A change or cut given only in a name is not applied to a line headed by its entry.
UniProt Q7RTR2: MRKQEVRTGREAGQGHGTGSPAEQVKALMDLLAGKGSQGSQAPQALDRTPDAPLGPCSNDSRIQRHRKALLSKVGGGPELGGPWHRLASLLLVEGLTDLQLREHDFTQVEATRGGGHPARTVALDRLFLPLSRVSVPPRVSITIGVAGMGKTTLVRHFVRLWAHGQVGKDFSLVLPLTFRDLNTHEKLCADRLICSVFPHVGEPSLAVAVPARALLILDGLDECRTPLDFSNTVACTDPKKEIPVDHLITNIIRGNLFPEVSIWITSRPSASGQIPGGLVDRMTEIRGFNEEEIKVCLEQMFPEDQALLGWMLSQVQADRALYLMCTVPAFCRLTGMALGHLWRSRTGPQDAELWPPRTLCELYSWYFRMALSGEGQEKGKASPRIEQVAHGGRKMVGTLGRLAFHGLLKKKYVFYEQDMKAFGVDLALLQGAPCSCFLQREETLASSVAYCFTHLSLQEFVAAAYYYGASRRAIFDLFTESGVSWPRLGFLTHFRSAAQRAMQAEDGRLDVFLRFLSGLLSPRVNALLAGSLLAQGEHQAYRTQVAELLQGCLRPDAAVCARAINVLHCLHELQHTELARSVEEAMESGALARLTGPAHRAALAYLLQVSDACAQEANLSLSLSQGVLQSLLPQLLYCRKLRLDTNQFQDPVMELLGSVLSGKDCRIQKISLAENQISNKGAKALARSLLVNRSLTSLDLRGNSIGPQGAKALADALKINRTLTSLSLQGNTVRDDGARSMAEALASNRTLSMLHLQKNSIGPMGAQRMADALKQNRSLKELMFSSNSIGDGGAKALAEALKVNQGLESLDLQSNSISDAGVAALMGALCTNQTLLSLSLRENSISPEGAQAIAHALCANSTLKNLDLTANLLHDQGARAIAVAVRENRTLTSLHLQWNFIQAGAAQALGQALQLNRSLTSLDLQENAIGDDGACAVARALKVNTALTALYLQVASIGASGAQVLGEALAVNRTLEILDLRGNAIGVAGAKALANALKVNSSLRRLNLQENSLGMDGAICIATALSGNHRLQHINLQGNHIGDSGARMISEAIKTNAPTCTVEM
UniProt Q9GZU7: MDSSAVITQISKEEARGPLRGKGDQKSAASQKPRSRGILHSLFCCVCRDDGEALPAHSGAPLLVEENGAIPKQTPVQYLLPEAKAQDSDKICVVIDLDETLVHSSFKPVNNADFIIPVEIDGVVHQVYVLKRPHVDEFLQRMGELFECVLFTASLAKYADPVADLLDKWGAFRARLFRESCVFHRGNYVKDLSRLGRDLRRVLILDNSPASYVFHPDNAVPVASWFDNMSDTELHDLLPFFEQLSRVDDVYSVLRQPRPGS
UniProt Q9H4I3: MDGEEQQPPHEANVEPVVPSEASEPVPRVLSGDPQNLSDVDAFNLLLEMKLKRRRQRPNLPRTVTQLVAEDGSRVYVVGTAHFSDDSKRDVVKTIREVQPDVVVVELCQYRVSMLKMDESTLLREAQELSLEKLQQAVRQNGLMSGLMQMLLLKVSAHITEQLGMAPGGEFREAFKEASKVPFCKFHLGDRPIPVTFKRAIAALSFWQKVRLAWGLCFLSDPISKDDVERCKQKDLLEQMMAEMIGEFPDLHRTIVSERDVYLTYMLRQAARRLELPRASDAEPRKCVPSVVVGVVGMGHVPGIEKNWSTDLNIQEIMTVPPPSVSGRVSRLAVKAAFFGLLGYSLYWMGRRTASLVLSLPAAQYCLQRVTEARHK
UniProt O75821, whole entry: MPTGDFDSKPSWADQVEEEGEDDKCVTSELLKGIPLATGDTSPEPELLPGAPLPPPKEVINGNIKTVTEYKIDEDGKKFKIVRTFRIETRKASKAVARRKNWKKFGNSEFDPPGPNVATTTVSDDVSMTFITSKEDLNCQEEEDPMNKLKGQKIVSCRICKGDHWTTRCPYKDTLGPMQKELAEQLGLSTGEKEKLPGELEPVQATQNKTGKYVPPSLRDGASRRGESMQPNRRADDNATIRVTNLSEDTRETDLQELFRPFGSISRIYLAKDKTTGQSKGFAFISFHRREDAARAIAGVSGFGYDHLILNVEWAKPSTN
UniProt Q9Y2K2: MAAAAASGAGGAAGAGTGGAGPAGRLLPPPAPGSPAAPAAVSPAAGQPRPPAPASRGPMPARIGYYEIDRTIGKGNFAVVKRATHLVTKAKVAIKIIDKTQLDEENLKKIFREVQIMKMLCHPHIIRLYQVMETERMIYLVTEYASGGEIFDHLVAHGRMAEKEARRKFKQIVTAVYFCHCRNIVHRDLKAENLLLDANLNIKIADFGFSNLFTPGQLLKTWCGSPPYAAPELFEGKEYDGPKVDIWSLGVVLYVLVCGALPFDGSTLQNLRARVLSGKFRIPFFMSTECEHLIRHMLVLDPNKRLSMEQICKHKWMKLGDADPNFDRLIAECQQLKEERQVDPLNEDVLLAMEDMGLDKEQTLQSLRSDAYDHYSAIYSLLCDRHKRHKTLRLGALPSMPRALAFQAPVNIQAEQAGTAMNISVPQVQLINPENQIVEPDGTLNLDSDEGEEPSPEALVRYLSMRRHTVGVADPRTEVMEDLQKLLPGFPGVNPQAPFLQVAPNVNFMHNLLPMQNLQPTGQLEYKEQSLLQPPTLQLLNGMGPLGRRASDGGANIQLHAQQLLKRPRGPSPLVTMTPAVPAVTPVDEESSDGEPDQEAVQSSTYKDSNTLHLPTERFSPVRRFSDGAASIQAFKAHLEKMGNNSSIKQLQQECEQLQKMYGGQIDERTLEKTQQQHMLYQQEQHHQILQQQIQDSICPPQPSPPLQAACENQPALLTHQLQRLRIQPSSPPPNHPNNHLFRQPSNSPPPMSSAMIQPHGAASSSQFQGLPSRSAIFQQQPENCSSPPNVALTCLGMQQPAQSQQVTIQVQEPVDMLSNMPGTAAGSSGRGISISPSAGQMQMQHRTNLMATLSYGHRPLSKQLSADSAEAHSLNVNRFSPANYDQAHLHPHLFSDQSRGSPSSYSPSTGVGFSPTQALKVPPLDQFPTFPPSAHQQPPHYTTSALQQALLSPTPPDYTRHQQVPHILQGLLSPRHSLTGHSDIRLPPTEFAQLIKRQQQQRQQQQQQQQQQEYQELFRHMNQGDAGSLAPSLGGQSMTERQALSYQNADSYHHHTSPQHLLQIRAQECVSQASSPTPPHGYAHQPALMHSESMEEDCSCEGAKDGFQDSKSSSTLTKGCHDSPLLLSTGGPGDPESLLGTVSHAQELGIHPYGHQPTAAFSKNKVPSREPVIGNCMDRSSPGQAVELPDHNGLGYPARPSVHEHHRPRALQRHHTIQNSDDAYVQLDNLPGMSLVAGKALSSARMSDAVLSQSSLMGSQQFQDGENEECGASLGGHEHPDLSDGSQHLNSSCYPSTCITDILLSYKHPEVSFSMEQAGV
UniProt Q6NW29: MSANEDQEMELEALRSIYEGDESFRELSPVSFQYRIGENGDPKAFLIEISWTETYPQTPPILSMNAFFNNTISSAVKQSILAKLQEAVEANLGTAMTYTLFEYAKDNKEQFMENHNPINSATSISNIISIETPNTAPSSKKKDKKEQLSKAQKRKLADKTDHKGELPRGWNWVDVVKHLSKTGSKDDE
UniProt Q8NCH0: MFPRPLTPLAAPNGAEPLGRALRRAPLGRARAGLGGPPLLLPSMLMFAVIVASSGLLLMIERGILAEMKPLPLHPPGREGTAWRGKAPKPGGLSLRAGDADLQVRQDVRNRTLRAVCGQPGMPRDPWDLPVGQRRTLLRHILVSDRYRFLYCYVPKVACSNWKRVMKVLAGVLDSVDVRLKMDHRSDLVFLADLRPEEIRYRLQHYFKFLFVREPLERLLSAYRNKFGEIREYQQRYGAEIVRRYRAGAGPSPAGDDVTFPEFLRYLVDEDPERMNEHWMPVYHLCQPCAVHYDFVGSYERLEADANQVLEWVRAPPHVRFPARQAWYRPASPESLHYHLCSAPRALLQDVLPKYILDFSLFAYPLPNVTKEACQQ
UniProt P42694: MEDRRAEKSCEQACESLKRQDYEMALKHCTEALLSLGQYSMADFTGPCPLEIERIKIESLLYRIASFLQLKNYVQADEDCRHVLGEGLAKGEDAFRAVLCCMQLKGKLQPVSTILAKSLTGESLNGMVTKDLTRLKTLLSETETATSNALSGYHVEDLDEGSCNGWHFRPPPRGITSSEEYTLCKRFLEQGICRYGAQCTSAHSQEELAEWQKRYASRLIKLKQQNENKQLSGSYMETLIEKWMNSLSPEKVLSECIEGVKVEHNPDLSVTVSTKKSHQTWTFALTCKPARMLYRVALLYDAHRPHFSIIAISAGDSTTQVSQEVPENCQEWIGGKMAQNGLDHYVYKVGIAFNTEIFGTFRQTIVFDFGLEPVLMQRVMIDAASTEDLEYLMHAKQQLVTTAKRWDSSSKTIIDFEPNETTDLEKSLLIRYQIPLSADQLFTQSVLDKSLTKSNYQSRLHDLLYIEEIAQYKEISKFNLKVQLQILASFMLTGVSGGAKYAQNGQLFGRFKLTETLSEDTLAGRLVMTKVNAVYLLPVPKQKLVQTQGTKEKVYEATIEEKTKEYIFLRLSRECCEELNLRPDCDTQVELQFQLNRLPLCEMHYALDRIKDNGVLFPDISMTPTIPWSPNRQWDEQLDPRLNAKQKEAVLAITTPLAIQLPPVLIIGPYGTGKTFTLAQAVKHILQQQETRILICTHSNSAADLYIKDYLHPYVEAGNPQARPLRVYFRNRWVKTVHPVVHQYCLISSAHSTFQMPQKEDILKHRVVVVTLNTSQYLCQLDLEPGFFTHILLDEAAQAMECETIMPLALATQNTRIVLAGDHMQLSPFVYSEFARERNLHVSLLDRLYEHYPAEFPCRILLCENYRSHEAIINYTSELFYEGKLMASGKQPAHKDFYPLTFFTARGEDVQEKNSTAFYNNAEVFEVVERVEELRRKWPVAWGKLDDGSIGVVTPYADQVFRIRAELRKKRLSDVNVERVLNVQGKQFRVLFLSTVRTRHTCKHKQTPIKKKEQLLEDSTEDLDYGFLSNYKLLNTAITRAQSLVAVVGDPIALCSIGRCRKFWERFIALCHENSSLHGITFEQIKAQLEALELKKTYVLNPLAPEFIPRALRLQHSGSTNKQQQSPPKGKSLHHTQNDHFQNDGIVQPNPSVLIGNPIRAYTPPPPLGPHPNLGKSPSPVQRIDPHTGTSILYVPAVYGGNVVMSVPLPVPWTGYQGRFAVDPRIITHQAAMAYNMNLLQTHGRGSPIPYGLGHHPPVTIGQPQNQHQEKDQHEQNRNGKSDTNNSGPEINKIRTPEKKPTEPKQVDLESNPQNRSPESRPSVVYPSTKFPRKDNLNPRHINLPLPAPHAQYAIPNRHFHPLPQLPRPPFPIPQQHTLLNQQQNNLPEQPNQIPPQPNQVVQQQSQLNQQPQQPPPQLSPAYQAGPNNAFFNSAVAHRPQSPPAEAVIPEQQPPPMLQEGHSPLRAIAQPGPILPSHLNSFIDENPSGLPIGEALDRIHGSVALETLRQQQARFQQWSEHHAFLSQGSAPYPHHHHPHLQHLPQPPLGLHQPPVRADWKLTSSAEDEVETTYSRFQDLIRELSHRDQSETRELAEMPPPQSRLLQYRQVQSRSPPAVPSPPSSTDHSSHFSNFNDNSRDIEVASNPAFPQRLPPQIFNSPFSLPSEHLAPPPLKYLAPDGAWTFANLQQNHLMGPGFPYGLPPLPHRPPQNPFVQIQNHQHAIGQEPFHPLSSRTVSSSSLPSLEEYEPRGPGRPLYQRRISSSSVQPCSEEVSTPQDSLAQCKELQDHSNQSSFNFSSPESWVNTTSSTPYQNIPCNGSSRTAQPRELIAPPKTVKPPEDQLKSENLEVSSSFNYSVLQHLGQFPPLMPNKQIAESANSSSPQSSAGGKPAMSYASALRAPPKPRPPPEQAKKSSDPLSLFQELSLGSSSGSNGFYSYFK
UniProt Q6UUV9: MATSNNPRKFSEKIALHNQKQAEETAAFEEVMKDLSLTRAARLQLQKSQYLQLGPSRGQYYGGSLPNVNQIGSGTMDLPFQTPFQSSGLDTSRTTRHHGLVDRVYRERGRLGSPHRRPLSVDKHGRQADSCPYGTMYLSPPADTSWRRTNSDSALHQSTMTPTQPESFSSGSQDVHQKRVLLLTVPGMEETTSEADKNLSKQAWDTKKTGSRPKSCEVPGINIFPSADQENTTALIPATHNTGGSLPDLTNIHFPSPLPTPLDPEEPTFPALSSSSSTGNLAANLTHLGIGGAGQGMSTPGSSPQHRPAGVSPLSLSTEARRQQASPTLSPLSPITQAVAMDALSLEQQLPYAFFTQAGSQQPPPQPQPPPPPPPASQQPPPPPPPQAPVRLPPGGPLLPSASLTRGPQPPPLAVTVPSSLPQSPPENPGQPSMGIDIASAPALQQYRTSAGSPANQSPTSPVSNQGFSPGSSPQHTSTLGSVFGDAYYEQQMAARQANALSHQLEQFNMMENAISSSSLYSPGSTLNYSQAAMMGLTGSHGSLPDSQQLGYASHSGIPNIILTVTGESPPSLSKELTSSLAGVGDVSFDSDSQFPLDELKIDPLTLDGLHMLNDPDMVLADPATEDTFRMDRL

What follows are targets tested with Nc1ncnc2c1ncn2[C@@H]1O[C@H](COP(=O)(O)OP(=O)(O)OP(=O)(O)O)[C@@H](O)[C@H]1O [adenosine triphosphate] (assay: NP40-soluble protein abundance relative to vehicle (solubility fold change) (ratio); higher = more soluble protein in presence of ATP). Details: concentration: 0.1mM.
Outline: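 Eight concentrations, 0.1 to 10 mM, were tested on Jurkat crude lysate for 10 min at room temperature and then 3 min at 37 °C, in three independent experiments. The lysate was solubilised with 0.8% NP40 and benzonase, ultracentrifuged, and the supernatant TMT-labelled for LC-MS/MS. Each value is the fold change against the detergent-processed vehicle in its own replicate, from vsn-normalised intensities.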

Target | NP40-soluble protein abundance
H0Y9S9 and related entries (UniProt O43314) | 1.04 ± 0.056
H0YKW3 and related entries (UniProt Q9H079) | 0.954 ± 0.049
H3BQD1 and related entries (UniProt Q93009) | 1.07 ± 0.089
H3BSW6 and related entries (UniProt Q2VPK5) | 1.07 ± 0.044
H0Y4T4 and related entries (UniProt Q5SW79) | 0.994 ± 0.025
H7BYJ3 and related entries (UniProt O14578) | 1.015 ± 0.0059
H3BLT9 and related entries (UniProt Q7RTR2) | 1.1 ± 0.069
J3QRD1 and related entries (UniProt P51648) | 1.03 ± 0.07
H7C1Z7 and related entries (UniProt Q9GZU7) | 1.02 ± 0.1
I3L182 and related entries (UniProt Q9UQ35) | 1.02 ± 0.057
H0YM31 and related entries (UniProt Q16822) | 1.04 ± 0.069
J3KPT4 and related entries (UniProt Q9H4I3) | 1.04 ± 0.037
K7EM91 and related entries (UniProt O43291) | 0.971 ± 0.035
J3KNG8 and related entries (UniProt Q8TF40) | 1.03 ± 0.092
I3L0U5 and related entries (UniProt Q6PK04) | 0.967 ± 0.032
J3KP75 and related entries (UniProt O75167) | 0.938 ± 0.074
M0QY77 and related entries (UniProt Q9BQD3) | 0.881 ± 0.13
H7C3X7 and related entries (UniProt Q2T9K0) | 1.1 ± 0.24
K7EL60 and related entries (UniProt O75821) | 0.962 ± 0.026

Reformatted field by field: part of the list above.
J3KP75 and related entries (UniProt O75167)
  NP40-soluble protein abundance: 0.938 ± 0.074
M0QY77 and related entries (UniProt Q9BQD3)
  NP40-soluble protein abundance: 0.881 ± 0.13

Further records follow:

Target | NP40-soluble protein abundance
J3KPC8 and related entries (UniProt Q9Y2K2) | 1.01 ± 0.096
K4DI92 and related entries (UniProt Q6NW29) | 0.925 ± 0.056
UniProt I3L0E3 | 0.961 ± 0.061
H0YN65 and related entries (UniProt Q8NCH0) | 0.892 ± 0.22
J3KNN3 and related entries (UniProt P15735) | 0.984 ± 0.05
J3KQL8 (UniProt Q9BQE5) | 1.05 ± 0.04
H0YK61 and related entries (UniProt Q5J8M3) | 0.947 ± 0.041
H0YNG3 and related entries (UniProt P67812) | 1.06 ± 0.11
J3QS41 and related entries (UniProt P42694) | 1.04 ± 0.035
H0Y9Z5 and related entries (UniProt Q96LI5) | 1.08 ± 0.053
M0QX46 and related entries (UniProt Q6UUV9) | 0.994 ± 0.033
J3KR58 and related entries (UniProt Q99611) | 1.06 ± 0.038
H0YEM9 (UniProt Q8NCP5) | 1.06 ± 0.12
K7EL68 and related entries (UniProt Q16543) | 0.995 ± 0.022
H7C0G7 and related entries (UniProt Q9H9Q4) | 1.03 ± 0.22
H7C3H7 and related entries (UniProt Q12873) | 1.09 ± 0.011
G5E9Q6 and related entries (UniProt P35080) | 0.997 ± 0.026
J3KR72 and related entries (UniProt P49848) | 1.01 ± 0.045
H0YNP9 and related entries (UniProt Q8N4P3) | 1.12 ± 0.31
